In patent publication US20230048678A1, “ICAN DERIVATIVES FOR ANTIFUNGAL USE” (DEBRECENI EGYETEM, priority 2019, published 2023):
Some entries share one result that the patent states for a list of compounds.

Tested on: C. albicans SC5314, C. krusei ATCC 6258 and C. parapsilosis ATCC 22019
Assay: CLSI broth microdilution, MIC summarised over the three Candida test strains
Assay type: cell-based
Conditions: value or range over the three Candida strains of Table 1, total inhibition
Description: ICAN has 3 key moieties, namely the amino, naphthalene and isonitrile. To find out which ones of them are essential for the antifungal behavior and to design more efficient derivatives, comparative studies were carried out, where one of the moieties was exchanged or eliminated. All ICAN derivatives were tested against C. albicans SC5314, C. krusei ATCC 6258 and C. parapsilosis ATCC 22019. The antifungal agents were dissolved in 100% DMSO and diluted further in RPMI-1640 (with L-glutamine but without bicarbonate) and buffered to pH 7.0 with 0.165 M morpholinopropanesulfonic acid (MOPS). MICs were read visually after 48-h incubation at 35° C. using the partial (50%) inhibition (for ICAN derivatives) (PI) and total inhibition (for AMB and ICAN derivatives) (TI) criteria. MICs were determined at least twice.
The tested C. albicans, C. tropicalis, C. parapsilosis, C. glabrata and C. krusei ATCC strains and clinical isolates are listed in Table 2. MICs were determined according to the CLSI M27-A3 [22]. […] MICs were read visually after 48-h incubation at 35° C. using the partial (50%) inhibition (for ICAN derivatives) (PI) and total inhibition (for AMB and ICAN derivatives) (TI) criteria. MICs were determined at least twice. […]

Compound: [C-]#[N+]c1ccc([N+]#[C-])cc1 [PDI, 1,4-phenylenediisocyanide, reference compound]
- MICTI: > 100 µg/mL
